Laboratory results reported in publication doi:10.1101/2024.06.23.24309370.
No constants are given. Whether binding was seen depends on the method and setting. Binding seen in cells or lysates may run through a third protein. Some results given as binding are weak or reduced against the parent protein; the word gives no strength.

Protein sequences, listed by entry. Tags and fused reporters are not part of them.
UniProt P67809: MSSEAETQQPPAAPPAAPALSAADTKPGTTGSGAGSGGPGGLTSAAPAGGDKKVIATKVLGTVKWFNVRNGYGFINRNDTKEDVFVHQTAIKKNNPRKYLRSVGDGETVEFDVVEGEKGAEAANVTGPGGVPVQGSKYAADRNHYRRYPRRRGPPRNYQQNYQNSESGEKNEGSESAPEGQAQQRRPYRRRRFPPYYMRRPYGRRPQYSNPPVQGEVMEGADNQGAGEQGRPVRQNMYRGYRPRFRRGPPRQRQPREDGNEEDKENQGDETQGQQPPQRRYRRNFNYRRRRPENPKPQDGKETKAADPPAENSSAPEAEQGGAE
UniProt Q15365: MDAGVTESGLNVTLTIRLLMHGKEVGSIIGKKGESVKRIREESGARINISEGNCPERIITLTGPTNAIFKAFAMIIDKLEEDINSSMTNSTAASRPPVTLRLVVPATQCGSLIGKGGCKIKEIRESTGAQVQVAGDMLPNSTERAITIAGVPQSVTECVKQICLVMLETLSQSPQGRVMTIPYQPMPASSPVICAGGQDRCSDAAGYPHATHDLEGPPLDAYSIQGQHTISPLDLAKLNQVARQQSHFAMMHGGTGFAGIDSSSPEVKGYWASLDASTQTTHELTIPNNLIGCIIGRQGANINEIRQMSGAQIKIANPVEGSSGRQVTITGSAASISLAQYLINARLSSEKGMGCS
UniProt Q9Y2T7: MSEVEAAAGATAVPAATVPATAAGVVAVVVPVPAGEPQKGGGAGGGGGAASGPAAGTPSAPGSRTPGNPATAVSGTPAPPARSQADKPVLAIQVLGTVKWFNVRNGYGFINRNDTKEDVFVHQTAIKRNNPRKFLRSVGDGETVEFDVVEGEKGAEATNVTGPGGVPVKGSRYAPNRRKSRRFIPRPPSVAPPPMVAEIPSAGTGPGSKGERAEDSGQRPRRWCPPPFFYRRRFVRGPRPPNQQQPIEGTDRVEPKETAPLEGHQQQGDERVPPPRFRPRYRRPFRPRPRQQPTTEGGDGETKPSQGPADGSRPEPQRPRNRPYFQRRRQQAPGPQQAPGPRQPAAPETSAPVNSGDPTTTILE
UniProt Q15366: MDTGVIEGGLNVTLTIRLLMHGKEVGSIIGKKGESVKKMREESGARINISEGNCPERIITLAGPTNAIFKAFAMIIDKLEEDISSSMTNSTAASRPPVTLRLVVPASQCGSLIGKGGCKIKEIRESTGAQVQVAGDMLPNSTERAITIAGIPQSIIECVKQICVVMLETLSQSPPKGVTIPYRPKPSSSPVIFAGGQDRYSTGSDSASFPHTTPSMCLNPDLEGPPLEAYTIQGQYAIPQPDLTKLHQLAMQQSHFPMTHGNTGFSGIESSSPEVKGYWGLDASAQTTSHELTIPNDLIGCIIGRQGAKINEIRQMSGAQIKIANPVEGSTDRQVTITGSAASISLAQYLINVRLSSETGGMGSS
UniProt P31749: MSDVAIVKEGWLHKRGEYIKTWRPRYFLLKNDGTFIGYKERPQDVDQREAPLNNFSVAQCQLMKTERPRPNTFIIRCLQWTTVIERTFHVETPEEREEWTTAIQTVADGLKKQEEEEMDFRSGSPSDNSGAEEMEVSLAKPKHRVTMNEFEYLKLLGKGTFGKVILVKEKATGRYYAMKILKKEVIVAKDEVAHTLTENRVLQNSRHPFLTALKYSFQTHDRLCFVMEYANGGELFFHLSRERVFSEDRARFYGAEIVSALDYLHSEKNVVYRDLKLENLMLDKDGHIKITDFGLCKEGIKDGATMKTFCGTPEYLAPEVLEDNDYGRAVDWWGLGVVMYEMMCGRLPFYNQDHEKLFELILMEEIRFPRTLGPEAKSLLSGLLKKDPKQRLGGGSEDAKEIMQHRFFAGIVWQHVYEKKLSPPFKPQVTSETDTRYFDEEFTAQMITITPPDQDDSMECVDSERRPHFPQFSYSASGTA
UniProt P31751: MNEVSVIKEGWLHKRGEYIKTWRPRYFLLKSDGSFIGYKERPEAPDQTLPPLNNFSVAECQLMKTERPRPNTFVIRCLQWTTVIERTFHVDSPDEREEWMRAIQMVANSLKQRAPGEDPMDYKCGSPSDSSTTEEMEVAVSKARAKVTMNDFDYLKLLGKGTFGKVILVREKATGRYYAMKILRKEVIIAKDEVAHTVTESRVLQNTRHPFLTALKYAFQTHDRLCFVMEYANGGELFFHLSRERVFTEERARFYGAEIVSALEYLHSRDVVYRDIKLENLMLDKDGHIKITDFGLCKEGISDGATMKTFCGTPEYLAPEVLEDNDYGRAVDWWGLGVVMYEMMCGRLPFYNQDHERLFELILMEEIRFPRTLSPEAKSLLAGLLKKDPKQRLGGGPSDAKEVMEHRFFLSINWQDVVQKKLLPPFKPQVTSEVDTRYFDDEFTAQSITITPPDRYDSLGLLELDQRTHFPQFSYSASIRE
UniProt Q9Y243: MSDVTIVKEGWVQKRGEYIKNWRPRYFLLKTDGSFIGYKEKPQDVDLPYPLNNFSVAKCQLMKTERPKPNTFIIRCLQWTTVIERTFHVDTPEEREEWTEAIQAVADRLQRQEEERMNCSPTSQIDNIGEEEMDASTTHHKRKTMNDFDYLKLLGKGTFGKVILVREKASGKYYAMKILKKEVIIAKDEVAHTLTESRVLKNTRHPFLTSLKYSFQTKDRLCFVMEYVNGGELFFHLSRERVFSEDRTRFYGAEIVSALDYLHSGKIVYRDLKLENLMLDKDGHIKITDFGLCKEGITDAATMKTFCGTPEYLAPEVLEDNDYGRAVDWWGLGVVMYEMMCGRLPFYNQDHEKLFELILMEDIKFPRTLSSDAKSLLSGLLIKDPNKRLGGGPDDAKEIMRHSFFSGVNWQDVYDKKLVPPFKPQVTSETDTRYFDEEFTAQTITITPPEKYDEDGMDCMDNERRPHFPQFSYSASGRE
UniProt Q16665: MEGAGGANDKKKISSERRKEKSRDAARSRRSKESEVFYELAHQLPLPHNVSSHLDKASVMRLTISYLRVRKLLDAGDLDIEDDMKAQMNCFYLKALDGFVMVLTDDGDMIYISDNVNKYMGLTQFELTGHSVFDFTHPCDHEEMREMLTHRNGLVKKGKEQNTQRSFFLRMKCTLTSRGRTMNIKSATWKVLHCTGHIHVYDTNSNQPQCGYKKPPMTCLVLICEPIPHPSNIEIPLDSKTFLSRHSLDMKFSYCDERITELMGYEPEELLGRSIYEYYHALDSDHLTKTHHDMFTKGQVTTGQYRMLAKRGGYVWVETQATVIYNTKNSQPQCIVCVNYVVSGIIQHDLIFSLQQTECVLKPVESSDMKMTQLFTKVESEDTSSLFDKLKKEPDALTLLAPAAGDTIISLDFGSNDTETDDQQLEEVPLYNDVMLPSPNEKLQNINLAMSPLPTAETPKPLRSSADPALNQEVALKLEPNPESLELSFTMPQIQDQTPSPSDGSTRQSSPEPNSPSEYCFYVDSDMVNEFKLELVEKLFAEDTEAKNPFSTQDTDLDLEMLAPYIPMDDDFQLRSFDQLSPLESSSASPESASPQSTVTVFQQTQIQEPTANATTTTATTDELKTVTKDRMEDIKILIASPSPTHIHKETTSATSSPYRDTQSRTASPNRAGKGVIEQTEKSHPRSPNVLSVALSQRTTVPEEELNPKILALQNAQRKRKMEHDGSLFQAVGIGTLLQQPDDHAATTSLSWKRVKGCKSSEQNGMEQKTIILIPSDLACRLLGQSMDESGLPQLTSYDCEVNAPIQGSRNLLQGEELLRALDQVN

Assays:
Assay in all cases: co-IP
[1] = target: 3×FLAG-YBX1 (Y-box binding protein 1) (UniProt P67809)
PCBP1 = PCBP1 (UniProt Q15365)
YBX2 = YBX2 (UniProt Q9Y2T7)
PCBP2 = PCBP2 (UniProt Q15366)
[2] = target: YBX1 (as used in the co-IP with HIF1ɑ) (UniProt P67809)

binding [1] | binding (PCBP1) | binding (YBX2) | binding (PCBP2) | binding [2] | Substance
binds | – | – | – | – | AKT1-HA (from UniProt P31749 1-480) (enzyme)
no binding | – | – | – | – | AKT2 (from UniProt P31751 1-481) (enzyme)
no binding | – | – | – | – | AKT3 (from UniProt Q9Y243 1-479) (enzyme)
– | no binding | no binding | no binding | no binding | hypoxia inducible factor 1 subunit alpha (HIF1ɑ) (from UniProt Q16665 1-826)
